Some of these results come from one statement about several compounds together.
System: Alternaria solani
Test: Use Example 2: activity against Alternaria solani on tomatoes (protective)
Format: in vivo
Conditions: 200 ppm active compound; tomato leaves; untreated plants 90% infected

With `Cc1ccccc1-c1c(Cl)nc2ncnn2c1N1CCC(C)CC1` [Compound A-31, 5-chloro-6-(2-methylphenyl)-7-(4-methylpiperidin-1-yl)-1,2,4-triazolo[1,5a]pyrimidine] the infection was “at most 15%”.

Reference: patent US20080249113A1, “Fungicidal Mixtures” (priority 2004, published 2008)
